Laboratory results published in PubChem BioAssay (NCATS).
The shares of active, inactive and inconclusive entries below differ from those in the screen. For some assays here: Where the call is inconclusive, the potency comes from a doubtful curve fit. Calls of active or inactive are those of the source. The call rests on the fitted dose curve; in most records, active means well fitted curve in the direction sought with a large enough effect; inconclusive means small, poorly fitted or top-dose-only effect, or another doubt; inactive means no such curve, though single readings can be large; an effect the other way counts as inactive or inconclusive.

Tests used:
[1] = target: Retinaldehyde dehydrogenase 3 (Homo sapiens) (UniProt P47895); test: qHTS for Inhibitors of the Aldehyde Dehydrogenase Family (ALDH1A3) Validation screen (AID 2061312); conditions: ALDH1A3 enzyme inhibition qHTS validation, fluorescence; activity change, negative = inhibition: at 84.7 µM (top of the series); further: nearly all actives have a fitted effect of over 45% in size; on activity change, negative = inhibition: on the % scale 0 is the no-effect control and ±100 the full control effect
[2] = BET inhibitor-based combinations targeting novel dependencies in MECOM-rearranged (r) AML: OCI-AML3 cell line (AID 2202232); conditions: CellTiter-Glo luminescence, 48 h; Potency: OCI-AML3 viability; viability (% of control): at 46 µM (top of the series); further: nearly all actives have a fitted effect of over 35% in size;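 on viability (% of control): plate controls were DMSO vehicle wells for no effect and wells without cells for full effect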
Outline: (§1)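 Readout: CellTiter-Glo luminescence. Exposure: 48 h, 11 concentrations, 500 cells/well. Metric: AUC and within-line Z-AUC after DMSO/empty-well normalization.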

[3] = BET inhibitor-based combinations targeting novel dependencies in MECOM-rearranged (r) AML: MV-4-11 cell line (AID 2202233); conditions: MV-4-11 AML viability, CellTiter-Glo luminescence, 48 h; viability, % of control: at 46 µM (top of the series) unless noted; further: nearly all actives have a fitted effect of over 45% in size;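 on viability, % of control: plate controls were DMSO for no effect and blank wells for full effect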
Outline: (§2)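 Seeding density was 500 cells/well, and drug exposure lasted 48 hr under standard culture conditions. Read-out used CellTiter-Glo reagent with a 15 min room-temperature incubation before luminescence measurement; AUC and Z-AUC summarize the normalized responses.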

[4] = BET inhibitor-based combinations targeting novel dependencies in MECOM-rearranged (r) AML: AML-191 cell line (AID 2202236; further: nearly all actives have a fitted effect of over 35% in size;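 on viability (% of control): plate controls were vehicle wells for no effect and wells without cells for full effect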); conditions: AML-191 viability, CellTiter-Glo luminescence, 48 h; series mostly up to 46 µM
Outline: as §1

[5] = BET inhibitor-based combinations targeting novel dependencies in MECOM-rearranged (r) AML: SET-2 cell line (AID 2202231); conditions: SET-2 AML cells viability, CellTiter-Glo luminescence, 48 h; viability: active compounds read low, concentration not given here; further: nearly all actives have a fitted effect of over 35% in size;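 on viability: plate controls were DMSO treated cells for no effect and wells without cells for full effect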
Outline: as §1

[6] = BET inhibitor-based combinations targeting novel dependencies in MECOM-rearranged (r) AML: UCSD-AML1 cell line (AID 2202235); conditions: UCSD-AML1 AML cells viability, CellTiter-Glo, 48 h; viability (% of control): at 46 µM (top of the series); further: nearly all actives have a fitted effect of over 40% in size;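 on viability (% of control): plate controls were DMSO vehicle wells for no effect and blank wells for full effect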
Outline: as §2

[7] = BET inhibitor-based combinations targeting novel dependencies in MECOM-rearranged (r) AML: AML-194 cell line (AID 2202237; further: nearly all actives have a fitted effect of over 40% in size;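 on viability (% of control): plate controls were vehicle wells for no effect and wells without cells for full effect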); conditions: AML-194 (MECOM-r AML) viability, CellTiter-Glo, 48 h; series mostly up to 46 µM
Outline: as §1

[8] = BET inhibitor-based combinations targeting novel dependencies in MECOM-rearranged (r) AML: HNT-34 cell line (AID 2202234); conditions: HNT-34 AML viability, CellTiter-Glo luminescence, 48 h; series mostly up to 46 µM; further: nearly all actives have a fitted effect of over 35% in size;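 on viability (% of control): plate controls were vehicle wells for no effect and cell-free wells for full effect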
Outline: as §2
Potency means the concentration at half of the fitted maximal effect.

For `CC(C)(C)C(=O)Oc1ccc(S(=O)(=O)Nc2ccccc2C(=O)NCC(=O)O)cc1`, the Potency [1] was inconclusive: 14.1 µM [inhibitor, partial curve], the Potency [2] was “inactive” and the Potency [3] was “inactive”.
With `CC[N+](CC)(CC)CCOc1cccc(OCC[N+](CC)(CC)CC)c1OCC[N+](CC)(CC)CC` the Potency [1] was inconclusive: 10 µM [inhibitor, partial curve, poor fit], the Potency [2] was “inactive” and the Potency [3] was “inactive”. The Potency [4] was “inactive”.
In the case of `Cc1ccc(NC(=O)Nc2cc(C(F)(F)F)ccc2F)cc1Nc1ccc2c(c1)NC(=O)/C2=C\c1ccc[nH]1`, the Potency [1] is reported as inconclusive: 8.91 µM [inhibitor, full curve, poor fit], the Potency [5] is reported as active: 23.5 µM and the Potency [6] is reported as “inactive”. The Potency [4] was active: 20.9 µM and the Potency [7] was inconclusive: 23.5 µM [inhibitor, partial curve, poor fit].
In the case of `OCCn1cc(-c2cnc3nnn(Cc4ccc5ncccc5c4)c3n2)cn1`, the Potency [1] is reported as “inactive”, the Potency [2] is reported as inconclusive: 3.32 µM [inhibitor, partial curve, poor fit] and the Potency [3] is reported as inconclusive: 10.5 µM [inhibitor, partial curve, poor fit]. The Potency [8] was inconclusive: 37.2 µM [inhibitor, partial curve, poor fit], the Potency [4] was inconclusive: 18.6 µM [inhibitor, partial curve, poor fit] and the Potency [7] was “inactive”.
With `CN1C(C(=O)Nc2ccccn2)=C(O)c2ccccc2S1(=O)=O` the Potency [1] was inconclusive: 1 µM [inhibitor, full curve], the viability [5] was inactive: 105% and the Potency [2] was “inactive”. The Potency [8] was “inactive”.
For `CCN(CC)CCCC(C)Nc1ccnc2cc(Cl)ccc12` (centres undefined), the Potency [1] was “inactive”, the viability [5] was inactive: 102% and the viability (% of control) [2] was inactive: 92.2% [at 8.46 µM]. For the same molecule, the viability, % of control [3] was inactive: 101% [at 8.46 µM] and the Potency [6] was inconclusive: 3.82 µM [inhibitor, partial curve, poor fit].
For `Nc1ccn([C@@H]2O[C@H](CO)[C@@H](O)C2(F)F)c(=O)n1`, the Potency [1] was inconclusive: 3.16 µM [inhibitor, full curve] and the Potency [3] was active: 0.0059 µM.
With `COCCOc1ccc(N2CCN(CCn3ncc4c3nc(N)n3nc(-c5ccco5)nc43)CC2)cc1` the Potency [1] was “inactive”, the Potency [6] was “inactive” and the Potency [4] was “inactive”.
With `c1ccc2c(Oc3nc(Nc4ccc(N5CCOCC5)cc4)c4ncn(C5CCCCC5)c4n3)cccc2c1` the Potency [1] was inconclusive: 35.5 µM [inhibitor, partial curve, poor fit], the Potency [2] was “inactive” and the Potency [8] was inconclusive: 23.5 µM [inhibitor, partial curve, poor fit]. For the same molecule, the Potency [6] was “inactive” and the Potency [7] was “inactive”.
In the case of `O=c1c(-c2ccc(O)cc2)coc2cc(O)cc(O)c12`, the Potency [1] is reported as “inactive”, the Potency [2] is reported as inconclusive: 42.8 µM [inhibitor, partial curve] and the Potency [6] is reported as inconclusive: 24.1 µM [inhibitor, full curve, poor fit]. The Potency [4] was active: 42.8 µM and the Potency [7] was inconclusive: 53.9 µM [inhibitor, single point].
With `CCC(C)(Oc1ccc(C2(c3ccc(OC(C)(CC)C(=O)O)cc3)CCCCC2)cc1)C(=O)O` (centres undefined) the Potency [1] was “inactive”, the Potency [2] was “inactive” and the Potency [8] was “inactive”. For the same molecule, the Potency [7] was “inactive”.
For `NCCCC(N)(C(=O)O)C(F)F` (centres undefined), the Potency [1] was inconclusive: 2.82 µM [inhibitor, full curve, poor fit], the Potency [8] was “inactive” and the Potency [4] was “inactive”.
For `Cc1cnc(-c2cc(N3CCN(C(=O)CCS(C)(=O)=O)CC3)ncc2Cl)c(C)c1`, the Potency [1] was inconclusive: 31.6 µM [inhibitor, partial curve], the Potency [8] was “inactive” and the Potency [4] was “inactive”.
For `CCO[C@@H]1OC(=O)C[C@@H]1NC(=O)[C@@H]1CCCN1C(=O)[C@@H](NC(=O)c1ccc(N)c(Cl)c1)C(C)(C)C`, the Potency [1] was “inactive”, the Potency [8] was “inactive” and the Potency [4] was inconclusive: 37.2 µM [inhibitor, partial curve, poor fit].
For `Oc1ccc(C2CNCCc3c2cc(O)c(O)c3Cl)cc1` (centres undefined), the Potency [1] was inconclusive: 14.1 µM [inhibitor, partial curve] and the Potency [4] was inconclusive: 29.5 µM [inhibitor, partial curve, poor fit].
In the case of `CC(=O)[C@]1(O)Cc2c(O)c3c(c(O)c2[C@@H](O[C@H]2C[C@H](N)[C@H](O)[C@H](C)O2)C1)C(=O)c1ccccc1C3=O`, the Potency [1] is reported as inconclusive: 0.631 µM [inhibitor, full curve, poor fit] and the Potency [7] is reported as active: 0.235 µM.
In the case of `CN1CC[C@@H](NC(=O)Nc2ccc(C#N)cc2)C[C@@H]1c1nc2ccccc2[nH]1`, the Potency [1] is reported as active: 3.98 µM, the Potency [3] is reported as inconclusive: 0.296 µM [inhibitor, full curve, poor fit] and the Potency [8] is reported as inconclusive: 20.9 µM [inhibitor, single point].
With `CCN(CC)CCn1c(=O)c(Cc2ccc(OC)cc2)nc2ccccc21` the Potency [1] was inconclusive: 3.16 µM [inhibitor, partial curve, poor fit], the Potency [8] was “inactive” and the Potency [6] was “inactive”.
In the case of `Cc1cc(Nc2nc(N[C@@H](C)c3ncc(F)cn3)ncc2Cl)n[nH]1`, the Potency [1] is reported as “inactive”, the Potency [3] is reported as inconclusive: 0.833 µM [inhibitor, full curve, poor fit] and the Potency [6] is reported as inconclusive: 0.833 µM [inhibitor, full curve, poor fit]. For the same molecule, the Potency [4] was active: 0.132 µM and the Potency [7] was inconclusive: 0.372 µM [inhibitor, full curve].
For `CN(C)CCOC(c1ccccc1)c1ccccc1`, the Potency [1] was inconclusive: 4.47 µM [inhibitor, full curve, poor fit] and the Potency [3] was “inactive”.
In the case of `COc1ccc(CCN2CCN(CCCc3ccccc3)CC2)cc1OC`, the Potency [1] is reported as inconclusive: 11.2 µM [inhibitor, full curve] and the Potency [6] is reported as “inactive”.
For `COc1ccc(C2CNC(=O)C2)cc1OC1CCCC1` (centres undefined), the Potency [1] was “inactive”, the Potency [8] was “inactive” and the Potency [6] was “inactive”.
In the case of `CCNCc1nc2c(N)nc3ccccc3c2n1CC(C)(C)O`, the Potency [1] is reported as “inactive”, the Potency [2] is reported as inconclusive: 20.9 µM [inhibitor, partial curve, poor fit] and the Potency [8] is reported as inconclusive: 29.5 µM [inhibitor, partial curve]. The Potency [4] was inconclusive: 26.3 µM [inhibitor, single point].
For `CC(C)(C)c1cc(C(=O)O)c(NC(=O)Nc2ccc3[nH]ncc3c2)s1`, the Potency [1] was “inactive”, the Potency [8] was “inactive” and the Potency [4] was “inactive”.
In the case of `O=C1c2c(O)ccc(O)c2C(=O)c2c(NCCNCCO)ccc(NCCNCCO)c21`, the Potency [1] is reported as inconclusive: 10 µM [inhibitor, partial curve] and the Potency [4] is reported as active: 0.372 µM.
In the case of `O=C1N(c2ccccc2)c2ccccc2C1(Cc1ccncc1)Cc1ccncc1`, the Potency [1] is reported as “inactive”, the Potency [8] is reported as inconclusive: 1.32 µM [inhibitor, full curve] and the Potency [6] is reported as “inactive”. For the same molecule, the Potency [4] was “inactive” and the Potency [7] was “inactive”.
In the case of `NCCOc1cc(C(=O)Nc2cc(OCCN)c3ccccc3n2)nc(C(=O)Nc2cc(OCCN)c3ccccc3n2)c1`, the Potency [1] is reported as inconclusive: 3.55 µM [inhibitor, full curve, poor fit], the Potency [8] is reported as inconclusive: 20.9 µM [inhibitor, partial curve] and the Potency [6] is reported as inconclusive: 29.5 µM [inhibitor, partial curve]. The Potency [4] was “inactive” and the Potency [7] was inconclusive: 29.5 µM [inhibitor, partial curve].
In the case of `CNC(=O)c1cccc(-c2ccc3c(N4CCOC[C@@H]4C)nc(N4CCOC[C@@H]4C)nc3n2)c1`, the Potency [1] is reported as “inactive”, the Potency [8] is reported as inconclusive: 0.209 µM [inhibitor, full curve] and the Potency [6] is reported as active: 0.0661 µM. For the same molecule, the Potency [4] was inconclusive: 0.132 µM [inhibitor, full curve] and the Potency [7] was inconclusive: 0.372 µM [inhibitor, full curve].
With `Cc1nc(-c2cccnc2)sc1C(=O)Nc1ccccc1-c1cn2c(CN3CCOCC3)csc2n1` the Potency [1] was inconclusive: 6.31 µM [inhibitor, full curve, poor fit], the Potency [2] was “inactive” and the Potency [4] was “inactive”. The Potency [7] was “inactive”.
In the case of `COc1cc(SC)ccc1C(=O)N1CCC(Cc2ccccc2)CC1`, the Potency [1] is reported as “inactive”, the Potency [2] is reported as “inactive” and the Potency [8] is reported as inconclusive: 37.2 µM [inhibitor, partial curve, poor fit]. The Potency [7] was “inactive”.
For `CC(C)(CNC(=O)c1cccc(-c2noc(C(F)(F)F)n2)c1)c1coc(-c2ccccc2)n1`, the Potency [1] was inconclusive: 39.8 µM [inhibitor, partial curve, poor fit], the Potency [2] was inconclusive: 13.2 µM [inhibitor, partial curve, poor fit] and the Potency [8] was inconclusive: 20.9 µM [inhibitor, partial curve, poor fit]. For the same molecule, the Potency [4] was active: 11.8 µM and the Potency [7] was inconclusive: 16.6 µM [inhibitor, partial curve, poor fit].
For `CC(=O)OCC(=O)[C@@]1(O)CC[C@H]2[C@@H]3CCC4=CC(=O)CC[C@]4(C)[C@H]3C(=O)C[C@@]21C`, the Potency [1] was “inactive” and the Potency [6] was inconclusive: 29.5 µM [inhibitor, single point].
In the case of `Nc1nc(N)c2nc(CNc3ccc(C(=O)NC(CCC(=O)O)C(=O)O)cc3)cnc2n1` (centres undefined), the Potency [1] is reported as inconclusive: 4.47 µM [inhibitor, full curve, poor fit], the Potency [6] is reported as inconclusive: 37.2 µM [inhibitor, single point] and the Potency [4] is reported as “inactive”.
